{"source": "paper PMC10400562", "about": "(Scientific Reports, 2023)", "note": "For part of these data: Some peptides are written in HELM: one residue between dots, names in brackets for other building blocks, links after the first $. Residues, ends and D or L forms follow the SMILES beside them."}
{"test": "general procedure: Fmoc solid-phase peptide synthesis; 2-chlorotrityl chloride resin; HBTU/HOBt/DIEA", "conditions": "cyclisation step, relative to linear precursor", "units": {"cyclisation yield": "%"}}
{"compound": "PEPTIDE1{L.W.[dW].N.K.[dR]}$PEPTIDE1,PEPTIDE1,1:R1-6:R2$$$V2.0", "cyclisation yield": 44.9}
{"compound": "PEPTIDE1{W.R.W.R.W.R}$PEPTIDE1,PEPTIDE1,1:R1-6:R2$$$V2.0", "cyclisation yield": 22.6}
{"compound": "PEPTIDE1{W.W.W.K.K.K}$PEPTIDE1,PEPTIDE1,1:R1-6:R2$$$V2.0", "cyclisation yield": 39.0}
{"compound": "PEPTIDE1{W.W.W.R.R.R}$PEPTIDE1,PEPTIDE1,1:R1-6:R2$$$V2.0", "cyclisation yield": 30.0}
{"compound": "PEPTIDE1{W.K.W.K.W.K}$PEPTIDE1,PEPTIDE1,1:R1-6:R2$$$V2.0", "cyclisation yield": 41.8}
{"test": "Label-free MST, peptide binding to 100 nm vesicles", "conditions": "curved LUVs by MST versus planar lipid conditions", "from_the_text": "For KD evaluation by MST, FHot was registered during the temperature related intensity change (TRIC) phase of the MST trace (see “Methods”). The advantage of evaluating KD during the TRIC phase is that any potential effects of prolonged heating on the thermostability of the sample that may influence the binding can be avoided. The dose–response profile of MST response against lipid concentration for 1–5 largely follows a sigmoidal curve shape (Fig. 3A,B).\nDMPC and DMPC:5% DMPG vesicles were prepared by solubilising a known weight of lipid in chloroform with a small amount of methanol to assist in the dissolution of the PG lipid head groups. The chloroform stock was dried in vacuo to produce a lipid film, which was further dried for additional 3 h. The lipid film was solubilised in 10 mM TRIS buffer (pH 7.4) containing 100 mM NaCl to yield a 20 mM milky lipid stock.\nTo produce the working vesicle stock, 1 mL of vesicle stock was extruded 20 times through a 0.1 µm filter using an Avanti Lipids mini-extruder. Vesicle size was confirmed using a Malvern Zetasizer Nano ZS (Malvern Panalytical Ltd, Malvern, United Kingdom).\nAll MST measurements were conducted on a NanoTemper Monolith NT. Labelfree instrument, using Monolith NT. Labelfree standard treated zero background capillaries. […]\nMST measurements were conducted with excitation power set to 15%, with the MST power set to high. […] For the evaluation of KP, the initial fluorescence was taken as the value reported during the period before the application of the laser. The MST response and initial fluorescence were extracted directly as a text file for further processing in MATLAB.\nIn a typical binding experiment that yields a sigmoidal curve, the Hill equation can be fitted to yield KD:[66]6 y=y0+EMaxLipid^n/KDn+Lipid^n where y is the MST response, y0 is the MST response of the AMP in an aqueous solution (i.e., in the absence of lipids), n is the Hill coefficient, and EMax is the maximal effect of the tested substrate. […] Erroneous points were identified by poor MST trace shapes or higher than expected initial fluorescence that was absent in the other replicates or subsequent points, but otherwise no further treatment of data was necessary. […]\nThe Kp of a molecule can be determined experimentally by observing changes in fluorescent intensity in the presence of an increasing concentration of lipid, and fitting to Eq. (8)[43].8 I/Iaq=1+KpVmLipidIL/Iaq/1+KPVmLipid\nIn Eq. (8) the fluorescence intensity of the AMP (I) is normalised to the fluorescence intensity of the AMP in an aqueous environment (Iaq), Vm is the molar volume of the lipids and IL is the fluorescence intensity of the AMP in the lipidic environment. […]"}
{"compound": "N=C(N)NCCC[C@@H]1NC(=O)[C@H](CCCNC(=N)N)NC(=O)[C@H](Cc2c[nH]c3ccccc23)NC(=O)[C@H](Cc2c[nH]c3ccccc23)NC(=O)[C@H](Cc2c[nH]c3ccccc23)NC(=O)[C@H](CCCNC(=N)N)NC1=O", "note": "[compound 1] (cyclo(WWWRRR))", "improvement in binding (KD) to LUVs compared with planar lipid conditions (SPR and SMA-QA)": "tenfold"}
{"compound": "NCCCC[C@@H]1NC(=O)[C@H](Cc2c[nH]c3ccccc23)NC(=O)[C@H](CCCCN)NC(=O)[C@H](Cc2c[nH]c3ccccc23)NC(=O)[C@H](CCCCN)NC(=O)[C@H](Cc2c[nH]c3ccccc23)NC1=O", "note": "[compound 4] (cyclo(WKWKWK))", "improvement in binding (KD) to LUVs compared with planar lipid conditions (SPR and SMA-QA)": "fourfold"}
{"compound": "N=C(N)NCCC[C@@H]1NC(=O)[C@H](Cc2c[nH]c3ccccc23)NC(=O)[C@H](CCCNC(=N)N)NC(=O)[C@H](Cc2c[nH]c3ccccc23)NC(=O)[C@H](CCCNC(=N)N)NC(=O)[C@H](Cc2c[nH]c3ccccc23)NC1=O", "note": "[compound 2] (cyclo(WRWRWR))", "improvement in binding (KD) to LUVs compared with planar lipid conditions (SPR and SMA-QA)": "fourfold"}
{"compound": "NCCCC[C@@H]1NC(=O)[C@H](CCCCN)NC(=O)[C@H](Cc2c[nH]c3ccccc23)NC(=O)[C@H](Cc2c[nH]c3ccccc23)NC(=O)[C@H](Cc2c[nH]c3ccccc23)NC(=O)[C@H](CCCCN)NC1=O", "note": "[compound 3] (cyclo(WWWKKK))", "improvement in binding (KD) to LUVs compared with planar lipid conditions (SPR and SMA-QA)": "tenfold"}
